# The list shows a part of the results. The data scatter; read single values as rough.
# System: Candida albicans SN425
# Experiment: biofilm OD600 B-score; higher = more biofilm (less inhibition)
# Conditions: 10 µM; assay detail: High-throughput adherence inhibition optical density biofilm assay with C. albicans SN425 in RPMI-1640/MOPS pH 7.0, 384-well plates. …
# Experimental: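 High-throughput adherence inhibition optical density biofilm assay with C. albicans SN425 in RPMI-1640/MOPS pH 7.0, 384-well plates. Compound (10 µM) was present only during the 90 min adherence step, then washed out, and the biofilm grew 24 h without compound. Biofilm was read as OD600 after removing the media. Scores are the difference from the mean in standard deviations and the plate B-score.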
row,Structure (SMILES),biofilm OD600 B-score
1,CCOC(=O)N1CCN(Cc2c(F)cccc2F)CC1,0.00699
2,O=C(CSc1ncnc2nc[nH]c12)N1CCOCC1,-2.57
3,CN(C)CCN(C)Cc1ccccc1Cl,0.0463
4,CC(C)NC(=O)c1ccccc1NC(=O)Nc1ccccc1,0.805
5,CCCN1CCC(N2CCN(c3ccccc3OC)CC2)CC1,-1.74
6,CC(C(N)=O)N(c1ccc(Oc2ccccc2)cc1)S(C)(=O)=O (stereo not given),1.63
7,CCOc1ccccc1NS(=O)(=O)c1ccc(SC)cc1,0.361
8,CCCN(CCO)CC1CC=CCC1 (stereo not given),-0.897
9,CC(C)c1ccc(OCC(=O)NCc2ccccn2)cc1,1.3
10,CN(CCc1ccccn1)C(=O)c1ccccc1F,-4.39
11,CSc1nnc2c(n1)[nH]c1ccc(C)cc12,-1.91
12,CCOc1ccccc1N1CCN(Cc2cccs2)CC1,1.4
13,CC(=O)Nc1ccc(-c2cn(Cc3ccccc3)cn2)cc1,0.0162
14,CCN(CC)C(=O)C1CCCN(Cc2ccc(N(C)C)cc2)C1 (stereo not given),-0.101
15,Cc1cc(C)nc(NC(=O)c2ccc(F)cc2)n1,2.22
16,Cc1ccc(NC(=O)CC(C)C)c(NC(=O)CC(C)C)c1,2.24
17,CC(NC(=O)c1ccccc1)C(O)c1ccccc1 (stereo not given),-0.0607
18,OCCN1CCN(CC(O)COCc2ccccc2)CC1 (stereo not given),-0.049
19,O=C(NCC(O)c1ccccc1)c1ccc(Cl)cc1 (stereo not given),-0.359
20,Cc1c(Cl)cccc1NC(=O)CCC(=O)O,0.467

# Rewritten as tab-separated lines: two of the compounds above.
row	Structure (SMILES)	biofilm OD600 B-score
12	CCOc1ccccc1N1CCN(Cc2cccs2)CC1	1.4
19	O=C(NCC(O)c1ccccc1)c1ccc(Cl)cc1 (stereo not given)	-0.359

# Remaining list, next part.

row,Structure (SMILES),biofilm OD600 B-score
1,NC(=O)C1CCN(C(=O)c2cccc(Cl)c2)CC1,0.858
2,CCc1ccc(NS(=O)(=O)c2cc(OC)ccc2OC)cc1,0.365
3,CCOc1ccc(NC(=O)Nc2ccc3snnc3c2)cc1,-3.26
4,O=C(Cc1cccs1)NC1C2CC3CC(C2)CC1C3 (stereo not given),-4.98
5,COc1ccc(CCNC(=O)C(C)C)cc1OC,-2.15
6,COc1ccccc1NC(=O)C1CC(Cl)=CCC1C(=O)O (stereo not given),0.874
7,CC(=O)Nc1cccc(S(=O)(=O)N2CCCCCC2)c1,1.74
8,O=C(Nc1cccc(Cl)c1)N1CCN(c2ccccc2F)CC1,0.787
9,O=S(=O)(Nc1cccc2cccnc12)c1ccccc1,-2.97
10,OC1(C#CCN2CCOCC2)CCCCC1,1.81
11,C=CCSc1nc2ccc(OC)cc2[nH]1,-0.437
12,COc1ccc(CCNC(=O)C2CC=CCC2C(=O)O)cc1OC (stereo not given),-4.01
13,CCCCC(=O)Nc1ccc(NC(=O)c2ccco2)cc1OC,-0.169
14,COc1ccc(OC)c(C(C)NC(=O)C2CC2)c1 (stereo not given),0.0437
15,Cc1cccc(C(=O)NCc2cccnc2)c1,1.61
16,Cc1nn(C(=O)N2CCOCC2)c(C)c1Br,-0.696
17,NC(=O)c1ccc(NC(=O)C2CCN(C(=O)Cc3ccccc3)CC2)cc1,1.44
18,c1ccc(OCCCN2CCOCC2)cc1,2.67
19,Cc1ccc(SCC(=O)N2CCC(C(N)=O)CC2)cc1,-2.72
20,COc1ccc(NC(=O)[C@@H]2C3C=CC(C3)[C@@H]2C(=O)O)cc1 (stereo not given in full),0.0522

# Reference: the supplement of paper PMC7824004
